Measurements reported in paper PMC4051164, “Multiple transcription factors directly regulate Hox gene lin-39 expression in ventral hypodermal cells of the C. elegans embryo and larva, including the hypodermal fate regulators LIN-26 and ELT-6”.

Biological target: T1, TBX-9 (Caenorhabditis elegans) (UniProt Q22289)
T1 sequence (looked up, limits assumed): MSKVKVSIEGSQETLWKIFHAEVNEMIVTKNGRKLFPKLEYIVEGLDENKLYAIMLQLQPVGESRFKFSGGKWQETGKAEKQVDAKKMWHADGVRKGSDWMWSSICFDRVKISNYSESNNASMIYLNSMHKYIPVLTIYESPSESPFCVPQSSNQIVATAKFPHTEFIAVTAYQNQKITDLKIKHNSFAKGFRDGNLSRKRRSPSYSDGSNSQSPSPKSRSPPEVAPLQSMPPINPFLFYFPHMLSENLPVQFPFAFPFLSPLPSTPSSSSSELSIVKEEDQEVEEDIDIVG
Test: EMSA
Details: 50 mM KCl, 20 mM HEPES pH 7.9, 0.2 mM EDTA, 0.5 mM DTT, 3 mM MgCl2, 1 ug poly(dI-dC), 0.5 ug/ul BSA, 0-800 ng protein, 20 ul, 20 min on ice (4 C); recombinant protein; protein details: N-terminal 6His (pQE-80L); label: 32P

Sequence: GTTACACCGTGTTCTCCCTCATCACAGCTATCAGAGCAACTTGTCAAAGTATTTGGACTCCCCGCAGCGGTATCTCTCTTATTGACAGTTGATTTGGGTGTGCACCTTGCGTTCGGACAGCATTGTGCACTTTGTGTTATGTCTTGCGGCTTCTTTTCTACTCTTGACACGCTTGTGATCGATGATGATGATTCGGATTCTAGTGGTGAAGCACTGATGGAGGAAATTAACAAGTTGGGCAAGAGTGGAGGTTATCG (double strand) [YF9]
- binding result: binds

The exact form of at least one protein or probe is not confirmed. Where a protein sequence is shown, tags need not be part of it.
